Plain letter strings leave the end groups untold.
Test: peptide made by a vendor
Details: whole synthesis, HPLC, Inertsil ODS-SP column (4.6 mm×250 mm), acetonitrile/water gradient with 0.1% TFA; run 1

With IHKNLLIVQDKFPPRRRQRRKKRG the “purity (crude or final not stated)” value was 98.03%.
